Measured values published in PubChem BioAssay AID588590 (National Center for Advancing Translational Sciences (NCATS), 2011).
Out of some 390,000 compounds screened, about 4,000 (1%) were called active. The inconclusive results got no clear call from the source; some entries with a clear call stand among them for comparison. Calls follow the shape of the dose curve; as a rule, active = well fitted inhibition curve with a large enough effect; inconclusive = small, poorly fitted or top-dose-only effect, or another doubt; inactive = no such curve, though single readings can be large or run the other way. A potency beside an inconclusive call is a rough fit, not a confirmed value.

By UniProt entry, the sequences of proteins in these tests, tags left out. Where a name states a change or a piece, a line headed by the entry shows the natural chain unless it says otherwise.
UniProt Q9UNA4: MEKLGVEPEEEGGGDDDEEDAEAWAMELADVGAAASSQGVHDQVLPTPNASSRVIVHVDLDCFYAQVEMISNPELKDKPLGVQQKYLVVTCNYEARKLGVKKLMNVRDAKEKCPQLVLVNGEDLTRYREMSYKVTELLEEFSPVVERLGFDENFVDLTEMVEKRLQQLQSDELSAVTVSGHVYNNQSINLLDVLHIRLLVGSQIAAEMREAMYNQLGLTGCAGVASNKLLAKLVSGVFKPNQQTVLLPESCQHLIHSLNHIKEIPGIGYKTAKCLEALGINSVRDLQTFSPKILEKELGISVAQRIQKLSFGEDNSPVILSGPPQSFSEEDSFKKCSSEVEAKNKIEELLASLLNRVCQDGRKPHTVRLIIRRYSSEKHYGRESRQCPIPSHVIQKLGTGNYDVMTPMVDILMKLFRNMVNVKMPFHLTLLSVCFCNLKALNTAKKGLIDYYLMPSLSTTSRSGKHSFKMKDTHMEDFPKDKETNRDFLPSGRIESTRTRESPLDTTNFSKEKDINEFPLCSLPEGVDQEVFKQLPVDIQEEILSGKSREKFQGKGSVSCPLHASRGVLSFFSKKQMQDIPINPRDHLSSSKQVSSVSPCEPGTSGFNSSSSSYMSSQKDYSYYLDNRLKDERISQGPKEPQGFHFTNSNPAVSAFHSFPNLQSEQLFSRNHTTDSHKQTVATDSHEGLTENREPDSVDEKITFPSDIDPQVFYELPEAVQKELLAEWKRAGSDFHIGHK

Target: DNA polymerase iota (Homo sapiens) (UniProt Q9UNA4)
Assay: qHTS for Inhibitors of Polymerase Iota
Conditions: Pol iota fluorescent replication assay, 10 min; series mostly up to 115 µM
Method in brief: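 Fluorescent replication assay read twice, at 0 min and 10 min after adding 50 nM (final) substrate. Enzyme (10 nM) and compounds were first incubated 15 min at room temperature; enzyme-free buffer wells were negative controls.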
Potency is read from the fitted curve at half-maximal effect.

Row | SMILES | Potency
1 | N#C/C(=C\c1ccc(Sc2ccc(Cl)cc2)o1)c1nc2ccccc2[nH]1 | inconclusive: 112 µM [inhibitor, partial curve, poor fit]
2 | O=C(/C=C/c1ccco1)c1cccnc1 | inconclusive: 17.8 µM [inhibitor, partial curve]
3 | CCc1ccc(C2c3c(oc4ccc(F)cc4c3=O)C(=O)N2CCc2ccc(OC)cc2)cc1 (stereo not drawn) | inconclusive: 89.1 µM [inhibitor, single point]
4 | C[C@]12c3[nH]c4ccc(Cl)cc4c3CCN1C(=O)[C@@H](CC(=O)NCc1cccc(C(F)(F)F)c1)C[C@@H]2C(=O)N1CCOCC1 | inconclusive: 35.5 µM [inhibitor, single point]
5 | Cc1ccnc(NC(=O)c2ccc([N+](=O)[O-])o2)c1 | inconclusive: 39.8 µM [inhibitor, single point]
6 | Cc1ccc(NC(=O)C(C)OC(=O)c2ccc(NS(=O)(=O)c3ccc(F)c(F)c3)cc2)cc1 (stereo not drawn) | inactive
7 | Cc1ccc(S(=O)(=O)N2CCN(C(=O)NCc3ccc(C(=O)O)cc3)CC2)cc1 | inconclusive: 100 µM [inhibitor, single point]
8 | Cc1ccc(NC(=O)c2ncn(CC(=O)N3CCN(c4ccccn4)CC3)n2)cc1C | inconclusive: 50.1 µM [inhibitor, partial curve, poor fit]
9 | CC(=O)c1cccc(NS(=O)(=O)c2cc(-c3onc(C)c3C)ccc2C)c1 | inactive
10 | Cc1ccc(CN(Cc2cc3cc4c(cc3[nH]c2=O)OCCO4)Cc2nnnn2Cc2ccco2)cc1 | active: 20 µM
11 | OCCN(CCO)c1ccc(/C=C/c2ccnc3ccccc23)cc1 | inactive
12 | COc1ccc(NC(=O)CSc2oc(-c3ccc(F)cc3)nc2S(=O)(=O)c2ccc(C)cc2)c(OC)c1 | inconclusive: 25.1 µM [inhibitor, partial curve, poor fit]
13 | Cc1cccc(NC(=O)CN2C(=O)N/C(=C/c3ccc(C)o3)C2=O)c1 | inconclusive: 79.4 µM [inhibitor, partial curve]
14 | COc1cc(/C=N/NC(=O)c2cccnc2)ccc1OC(=O)c1cc(OC)c(OC)c(OC)c1 | inconclusive: 44.7 µM [inhibitor, partial curve, poor fit]
15 | CC1=C(C(=O)Nc2ccccc2)C(c2ccc(C)cc2)N=C(Nc2nc3ccccc3o2)N1 (stereo not drawn) | inconclusive: 39.8 µM [inhibitor, single point]
16 | CSc1nc(SCC(=O)NCC2CCCO2)c2c3c(sc2n1)CN(C)CC3 (stereo not drawn) | inconclusive: 11.2 µM [inhibitor, partial curve, poor fit]
17 | Cc1nc2ccccc2n1CC(=O)c1ccc(O)c(O)c1 | inconclusive: 50.1 µM [inhibitor, partial curve, poor fit]
18 | CCOC(=O)C1=C(c2ccccc2)N=c2s/c(=C\c3ccc(O)cc3)c(=O)n2C1c1cccs1 (stereo not drawn) | active: 44.7 µM
19 | CCOc1ccccc1NC(=O)CSc1nc2c(sc3ccccc32)c(=O)n1CCCC(=O)NC1CCCC1 | inactive
20 | CC(C)C[C@H](NC(=O)c1nc[nH]c1C(=O)NCc1ccccc1)C(=O)OCc1ccccc1 | inconclusive: 100 µM [inhibitor, single point]
21 | CC(C)(C)c1nnc(NC(=O)C2c3ccccc3Oc3ccccc32)s1 | inconclusive: 12.6 µM [inhibitor, single point]

Row | SMILES | Potency
22 | Cc1ccc(-c2cc(C(=O)OCC(=O)N(C)c3c(N)n(Cc4ccccc4)c(=O)[nH]c3=O)c3ccccc3n2)o1 | inactive
23 | Cc1ccc(-n2c(SCC(=O)N/N=C/c3ccccc3C(=O)O)nnc2-c2ccc(Cl)cc2)cc1 | inconclusive: 70.8 µM [inhibitor, single point]
24 | Cc1ccc(S(=O)(=O)N2CCN(C3CCN(Cc4ccccc4)CC3)CC2)cc1 | inconclusive: 112 µM [inhibitor, partial curve, poor fit]
25 | O=C(Cc1cn2ccsc2n1)Nc1cccc2cnccc12 | inactive
26 | O=[N+]([O-])c1cnccc1Nc1cccc(F)c1 | inconclusive: 31.6 µM [inhibitor, partial curve, poor fit]
27 | CCOc1cc(/C=C2\SC(=S)N(Nc3ccccc3)C2=O)ccc1O | inconclusive: 17.8 µM [inhibitor, full curve, poor fit]
28 | CCC1=C2CC[C@H]3C(=O)N(c4ccccc4)C(=O)[C@H]3[C@H]2[C@@]2(C)C(=NCc3ccccc3)OC(=O)N2C1=O | inconclusive: 79.4 µM [inhibitor, partial curve]
29 | Cc1cc(C)c(S(=O)(=O)Nc2cnc3ccccc3c2)c(C)c1 | inconclusive: 79.4 µM [inhibitor, partial curve]
30 | COC(=O)c1ccc2c(c1)SC1=C(CCCC1=O)N2 | inactive
31 | N#CC1=C(N)SC(N)=C(C#N)C1c1c(Cl)cccc1Cl | inconclusive: 28.2 µM [inhibitor, single point]
32 | CC(C)(O)C#Cc1ccc(C(=O)N2CCN(c3ccccc3)CC2)cc1 | inactive
33 | CN(CC(=O)Nc1cccc(F)c1)C(=O)CCSc1ccc(F)cc1 | inactive
34 | Cc1cc(C)nc(N/C=C(\C#N)C(=O)c2cccc(CSc3ccccc3)c2)n1 | inconclusive: 35.5 µM [inhibitor, full curve]
35 | C=C(C)c1cccc(C(C)(C)NC(=O)NC2CCN(Cc3ccccc3)CC2)c1 | inconclusive: 12.6 µM [inhibitor, partial curve, poor fit]
36 | O=C(O)CC(CC(=O)O)n1cccc1 | inactive
37 | COc1cc(/C=N/Nc2nncn2/N=C/c2ccc(O)c(OC)c2)ccc1O | active: 20 µM
38 | Cc1ccccc1-n1nc(C)c2c1N=C1C(Cl)=CC(Cl)=CN1C2c1ccc(C(=O)O)cc1 (stereo not drawn) | inconclusive: 31.6 µM [inhibitor, single point]
39 | O=S(=O)(c1cc(Cl)ccc1Cl)n1nnc2ccccc21 | inconclusive: 20 µM [inhibitor, full curve, poor fit]
40 | Cc1ccc(S(=O)(=O)CCC(=O)Nc2ccc(OC(F)(F)F)cc2)cc1 | inactive
41 | CC(C)(C)c1ccc(OC(=O)N2CCOCC2)cc1 | inconclusive: 1.41 µM [inhibitor, full curve, poor fit]
42 | CC1(OC(=O)CCc2ccccc2)C(=O)C=C2C=C(c3ccc(C#N)cc3)N(Cc3ccco3)C=C2C1=O (stereo not drawn) | inconclusive: 25.1 µM [inhibitor, single point]

Quoted from the listing.
Entry for CCOc1cc(/C=C2\SC(=S)N(Nc3ccccc3)C2=O)ccc1O under Potency: inconclusive: 17.8 µM [inhibitor, full curve, poor fit]
Entry for CC(C)(O)C#Cc1ccc(C(=O)N2CCN(c3ccccc3)CC2)cc1 under Potency: inactive

Next structures.

Row | SMILES | Potency
43 | CCOC(=O)C1=C(CCc2ccccc2)NC(=O)NC1c1cccc([N+](=O)[O-])c1 (stereo not drawn) | inactive
44 | CCCCNC(=S)NCCN1CCCCC1 | inconclusive: 39.8 µM [inhibitor, partial curve, poor fit]
45 | Cc1ccc(CNC(=O)c2cc(-c3ccccc3)nn2CC2CC(c3cccnc3)=NO2)cc1 (stereo not drawn) | inconclusive: 2.24 µM [inhibitor, full curve, poor fit]
46 | O=C(Oc1ccc(Br)cc1C(=O)/C=C/c1ccccc1F)c1ccco1 | inconclusive: 15.8 µM [inhibitor, partial curve, poor fit]
47 | COC(=O)c1ccc2c(=O)[nH]c(CCl)nc2c1 | inconclusive: 4.47 µM [inhibitor, partial curve, poor fit]
48 | O=C(O)CCCCCN1C(=O)C(O)=C(C(=O)/C=C/c2ccccc2)C1c1ccc2c(c1)OCO2 (stereo not drawn) | inconclusive: 7.08 µM [inhibitor, full curve, poor fit]
49 | Cc1ccc(NC(=O)Cn2nnc3sc4c(c3c2=O)CCC(C)C4)cc1 (stereo not drawn) | inactive
50 | CN(CC(=O)Nc1c(Cl)cccc1Cl)C(=O)c1ccccc1SCC(=O)N1CCCC1 | inactive
51 | Cc1cccc(-n2ncc(C(=O)N3CCN(Cc4ccccc4)CC3)c2C2CCN(C(=O)OC(C)(C)C)CC2)c1 | inactive
52 | O=C(O)c1ccc(CSc2nc3ccc(N4C(=O)C5C6C=CC(C6)C5C4=O)cc3s2)cc1 (stereo not drawn) | inconclusive: 25.1 µM [inhibitor, full curve, poor fit]
53 | COc1cc2[nH]c(-c3cccc(F)c3)cc(=O)c2cc1OC | inconclusive: 56.2 µM [inhibitor, partial curve, poor fit]
54 | C=C1C=C(C(F)F)n2ncc(C(=O)NCCc3ccccc3OC)c2N1 | inconclusive: 31.6 µM [inhibitor, partial curve]
55 | CC(=O)Oc1ccc(N2C(=O)C3C4C=CC(C5CC45)C3C2=O)cc1[N+](=O)[O-] (stereo not drawn) | inconclusive: 56.2 µM [inhibitor, partial curve, poor fit]
56 | COc1ccc(/C=N/NC(=O)c2ccc(COc3cccc4cccnc34)cc2)cc1O | inconclusive: 35.5 µM [inhibitor, single point]
57 | Cc1ccc(O)c(C(=O)CC(=O)c2ccc(C(C)(C)C)cc2)c1 | inconclusive: 35.5 µM [inhibitor, single point]
58 | O=C(O)CCNC(=S)Nc1cccc(F)c1 | inconclusive: 39.8 µM [inhibitor, single point]
59 | Cc1cccc(N=C2NC(=O)/C(=C/c3cccnc3)S2)c1 | inconclusive: 89.1 µM [inhibitor, single point]
60 | COc1ccc2[nH]c(=O)c(CN(C(=O)c3cccnc3)c3ccccc3OC)cc2c1 | inconclusive: 15.8 µM [inhibitor, partial curve, poor fit]
61 | Cc1ccnc(NC(=O)CS(=O)(=O)c2ccccc2)c1 | inactive
62 | COc1ccc(S(=O)(=O)N2CCN(Cc3ccc4c(c3)OCO4)CC2)cc1C | inactive
63 | Cc1cccc2nc(Cn3c(=O)n(CCCC(=O)NCc4ccco4)c(=O)c4ccccc43)cc(=O)n12 | inconclusive: 50.1 µM [inhibitor, partial curve]
